Laboratory results from the supplement of paper PMC10849652.
The other results are listed elsewhere or left out.

Key:
Experiment in all cases: log2 fold change, soluble protein after heating vs DMSO (PISA); higher = thermal stabilisation; K562 lysate, 10 uM; active = over 0.2 and 3.5 SD of the protein, either way, in both replicates (recomputed)
[1] = compound: C#Cc1cccc(Nc2ncnc3cc(OCCOC)c(OCCOC)cc23)c1 [erlotinib]
In short: (§1)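 Thermal stability, expressed as log-two fold change relative to solvent controls, is given from duplicates. Crude K562 extract in PBS pH 7.4 with 1 mM MgCl2, at 1 mg/mL protein, was treated with 10 μM compound for 30 min and heated in aliquots for 3 min across 48°C-58°C. After pooling, adjustment to 0.5% NP-40 at 4°C and centrifugation at 21,000xg for 90 min, supernatant protein was measured by TMTpro 16plex LC-MS/MS with channel sums equalised.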

[2] = compound: C1=CC(=CC=C1C2=NC3=C(N2)C=C(C=C3)C(=O)N)OC4=CC=C(C=C4)Cl
In short: as §1

[3] = compound: CC(C)C1=C2N=C(C=C(N2N=C1)NCC3=CC=CC=C3)NCCCCCCN
In short: as §1

[4] = compound: CC1=C(C(CC(=O)N1)C2=CC=C(C=C2)C(F)(F)F)C(=O)NC3=C(C=C4C(=C3)C=NN4)F
In short: as §1

[5] = compound: C/C(=N\NC(=O)C1=CC(=CC=C1)S(=O)(=O)N2CCOCC2)/C3=C(C=CC(=C3)Cl)O
In short: as §1

[6] = compound: C1=CC2=C(C=CC(=C2)/C=C\3/C(=O)NC(=NCC4=CC=CS4)S3)N=C1
In short: as §1

[7] = compound: C1=CC2=NC=CN=C2C=C1/C=C/3\C(=O)NC(=O)S3
In short: as §1

[8] = compound: C1=CC=C(C=C1)C2=NC(=C(N2)C3=CC=NC=C3)C4=CC(=C(C=C4)Cl)O
In short: as §1

[9] = compound: C1=CC=C2C(=C1)C3=NNC4=CC=CC(=C43)C2=O
In short: as §1

[10] = compound: C1CCN(C1)C(=O)NC2=CC=CC(=C2)NC3=NC=C(C(=N3)NCCC4=CN=CN4)Br
In short: as §1

[11] = compound: C1CN(CCC1(CC2=CC=C(C=C2)Cl)N)C3=NC=NC4=C3C=CN4
In short: as §1

[12] = compound: C1COCCN1CCN2C3=CC=CC=C3N=C2NC(=O)C4=CC(=CC=C4)[N+](=O)[O-] [IRAK-1-4 Inhibitor I]
In short: as §1

[13] = compound: C=CC(=O)N1CCC[C@@H](n2nc(-c3ccc(Oc4ccccc4)cc3)c3c(N)ncnc32)C1 [ibrutinib]
In short: as §1

[14] = compound: CC(=O)c1cnc2ccc(-c3cc(Cl)c(O)c(Cl)c3)nc2c1N[C@H]1CC[C@H](CN(C)C)CC1
In short: as §1

[15] = compound: CC(C)(C)Cn1c(N)nc2ccc(-c3[nH]c(C(C)(C)C)nc3-c3ccc(F)cc3)nc21 [ralimetinib]
In short: as §1

[16] = compound: CC(C)(O)CC(=O)NCCn1ccc2ncnc(Nc3ccc(Oc4cccc(C(F)(F)F)c4)c(Cl)c3)c21
In short: as §1

[17] = compound: CC1=C(C=C(C=C1)NC(=O)C2=CC(=CC=C2)N(C)C)NC(=O)C3=CC=C(C=C3)O
In short: as §1

[18] = compound: CC1=CC=C(C=C1)SC2=C3C=C(SC3=CN=C2)C(=O)N
In short: as §1

[19] = compound: CC1=C(C=C(C=C1)NC(=O)C2=CC(=CC=C2)C(C)(C)C#N)NC3=CC4=C(C=C3)N=CN(C4=O)C
In short: as §1

[20] = compound: CC1=C(C2=C(C=C1)C(=O)C3=CC=CC=C3N2CCCN)C
In short: as §1

Measured: log2 fold change

UNC13A (UniProt Q9UPW8)
inactive: [1] 0.069 | [2] 0.039 | [3] 0.022 | [4] -0.053

UROD (UniProt H0Y5R6)
inactive: [5] -0.053 | [6] -0.339 | [7] 0.042 | [8] -0.184 | [9] 0.097 | [10] -0.125 | [11] 0.11 | [12] -0.092 | [13] 0.05 | [14] 0.101 | [15] 0.116 | [16] -0.116 | [17] -0.345 | [18] -0.077

UHRF2 (UniProt Q96PU4)
inactive: [5] -0.132 | [6] 0.024 | [9] -0.211 | [19] 0.026

Copied from above (2 entries):
UNC13A (UniProt Q9UPW8)
inactive: [1] 0.069 | [2] 0.039 | [3] 0.022 | [4] -0.053

UROD (UniProt H0Y5R6)
inactive: [5] -0.053 | [6] -0.339 | [7] 0.042 | [8] -0.184 | [9] 0.097 | [10] -0.125 | [11] 0.11 | [12] -0.092 | [13] 0.05 | [14] 0.101 | [15] 0.116 | [16] -0.116 | [17] -0.345 | [18] -0.077

(list continues)

USP42 (UniProt Q9H9J4)
inactive: [7] -0.153 | [10] -0.017 | [11] -0.141 | [13] 0.111 | [14] 0.077 | [4] 0.011 | [19] 0.045 | [18] 0.02

USP6NL isoform 2 (UniProt Q92738)
inactive: [5] -0.233 | [6] 0.063 | [9] -0.164 | [10] 0.149 | [11] -0.124 | [14] 0.004 | [4] -0.046 | [19] -0.005 | [18] 0.013

VGLL4 isoform 4 (UniProt Q14135)
inactive: [1] 0.004 | [2] -0.015 | [7] -0.003 | [8] 0.016 | [12] -0.048 | [13] 0.366 | [15] 0.048 | [16] -0.037 | [3] 0.024 | [4] 0.018 | [20] -0.033 | [19] 0.035 | [17] 0.072

UTRN isoform 2 (UniProt P46939)
inactive: [1] -0.222 | [2] 0.247 | [7] -0.072 | [10] 0.135 | [11] 0.171 | [13] -0.03 | [3] -0.012

UMAD1 (UniProt C9J7I0)
inactive: [8] -0.045 | [12] -0.023 | [14] -0.066 | [15] 0.005 | [16] 0.027 | [4] -0.078 | [20] -0.045 | [19] 0.1 | [17] 0.079 | [18] -0.017

USP5 (UniProt F5H571)
inactive: [7] -0.413 | [13] 0.072 | [14] 0.036 | [4] 0.118 | [18] 0.005

USP36 (UniProt Q9P275)
inactive: [5] -0.026 | [6] -0.22 | [8] 0.089 | [9] -0.126 | [10] 0.167 | [11] -0.197 | [12] -0.024 | [14] -0.242 | [15] 0.061 | [16] 0.045 | [4] -0.054 | [19] -0.093 | [17] 0.156 | [18] -0.102

USP7 (UniProt H3BND8)
inactive: [7] -0.015 | [13] 0.199 | [14] -0.12 | [4] -0.023 | [18] 0.076

URB2 (UniProt Q14146)
inactive: [5] -0.084 | [6] -0.133 | [8] -0.007 | [9] -0.061 | [10] 0.038 | [11] -0.022 | [12] -0.002 | [14] -0.066 | [15] 0.025 | [16] -0.091 | [4] 0.145 | [20] -0.054 | [19] -0.012 | [17] -0.03 | [18] -0.057

VEGFA isoform 14 (UniProt P15692)
inactive: [19] -0.036
